Results published in the supplement of paper PMC8728848.
The other results are listed elsewhere or left out.

Legend:
Experiment in all cases: glycan array binding signal (z-score within array); higher = stronger binding
Details in all cases: glycan notation: IUPAC condensed, linker removed
[1] = target: GlcNAc(b1-3)GalNAc
How it was run: (§1)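 Glycan array binding is given as a within-array Z-score, which can be read as non-binding when negative. The arrays, 3228 of them, came from the Consortium for Functional Glycomics database and were retained only where the protein sequence was available. Z-scores were averaged across arrays of the same protein sequence at different concentrations or buffers and across linkers.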

[2] = target: GlcNAc(b1-3)Man
How it was run: as §1

[3] = target: GlcNAc(b1-3)[GlcNAc(b1-4)][GlcNAc(b1-6)]GlcNAc
How it was run: as §1

[4] = target: GlcNAc(b1-3)[GlcNAc(b1-6)]Gal(b1-4)GlcNAc
How it was run: as §1

[5] = target: GlcNAc(b1-3)[GlcNAc(b1-6)]GalNAc
How it was run: as §1

[6] = target: GlcNAc(b1-4)Gal(b1-4)GlcNAc
How it was run: as §1

[7] = target: GlcNAc(b1-4)GlcNAc
How it was run: as §1

[8] = target: GlcNAc(b1-4)GlcNAc(b1-4)GlcNAc
How it was run: as §1

[9] = target: GlcNAc(b1-4)GlcNAc(b1-4)GlcNAc(b1-4)GlcNAc(b1-4)GlcNAc
How it was run: as §1

[10] = target: GlcNAc(b1-4)GlcNAc(b1-4)GlcNAc(b1-4)GlcNAc(b1-4)GlcNAc(b1-4)GlcNAc
How it was run: as §1

[11] = target: GlcNAc(b1-4)[GlcNAc(b1-6)]GalNAc
How it was run: as §1

[12] = target: GlcNAc(b1-6)Gal(b1-4)GlcNAc
How it was run: as §1

[13] = target: GlcNAc(b1-6)GalNAc
How it was run: as §1

[14] = target: GlcNAc6S(b1-3)Gal(b1-4)GlcNAc
How it was run: as §1

[15] = target: Kdn(a2-3)Gal(b1-3)GalNAc
How it was run: as §1

[16] = target: Kdn(a2-3)Gal(b1-3)GlcNAc
How it was run: as §1

[17] = target: Kdn(a2-3)Gal(b1-4)Glc
How it was run: as §1

[18] = target: Kdn(a2-3)Gal(b1-4)GlcNAc
How it was run: as §1

[19] = target: Kdn(a2-3)Gal(b1-4)[Fuc(a1-3)]GlcNAc
How it was run: as §1

[20] = target: Kdn(a2-6)Gal(b1-4)GlcNAc
How it was run: as §1

[21] = target: Man(a1-2)Man(a1-2)Man(a1-3)Man
How it was run: as §1

[22] = target: Man(a1-2)Man(a1-2)Man(a1-6)[Man(a1-3)]Man
How it was run: as §1

[23] = target: Man(a1-2)Man(a1-3)Man
How it was run: as §1

[24] = target: Man(a1-2)Man(a1-3)[Man(a1-2)Man(a1-6)]Man
How it was run: as §1

[25] = target: Man(a1-2)Man(a1-3)[Man(a1-2)Man(a1-6)]Man(a1-6)[Man(a1-2)Man(a1-2)Man(a1-3)]Man
How it was run: as §1

[26] = target: Man(a1-2)Man(a1-3)[Man(a1-2)Man(a1-6)]Man(a1-6)[Man(a1-2)Man(a1-2)Man(a1-3)]Man(b1-4)GlcNAc(b1-4)GlcNAc
How it was run: as §1

[27] = target: Man(a1-2)Man(a1-3)[Man(a1-6)]Man(a1-6)[Man(a1-2)Man(a1-3)]Man(b1-4)GlcNAc(b1-4)GlcNAc
How it was run: as §1

[28] = target: Man(a1-2)Man(a1-6)[Man(a1-3)]Man(a1-6)[Man(a1-2)Man(a1-2)Man(a1-3)]Man
How it was run: as §1

[29] = target: Man(a1-2)Man(a1-6)[Man(a1-3)]Man(a1-6)[Man(a1-2)Man(a1-2)Man(a1-3)]Man(b1-4)GlcNAc(b1-4)GlcNAc
How it was run: as §1

[30] = target: Man(a1-3)[Man(a1-6)]Man
How it was run: as §1

[31] = target: Man(a1-3)[Man(a1-6)]Man(a1-6)[Man(a1-2)Man(a1-3)]Man(b1-4)GlcNAc(b1-4)GlcNAc
How it was run: as §1

[32] = target: Man(a1-3)[Man(a1-6)]Man(a1-6)[Man(a1-3)]Man
How it was run: as §1

[33] = target: Man(a1-3)[Man(a1-6)]Man(a1-6)[Man(a1-3)]Man(b1-4)GlcNAc(b1-4)GlcNAc
How it was run: as §1

[34] = target: Man(a1-3)[Man(a1-6)]Man(b1-4)GlcNAc(b1-4)GlcNAc
How it was run: as §1

[35] = target: Man(a1-3)[Man(a1-6)]Man(b1-4)GlcNAc(b1-4)[Fuc(a1-6)]GlcNAc
How it was run: as §1

[36] = target: Man(a1-6)Man
How it was run: as §1

[37] = target: Man(b1-4)GlcNAc
How it was run: as §1

[38] = target: MurNAc(b1-4)GlcNAc
How it was run: as §1

B1: AT3G09350(27) (Arabidopsis thaliana), Q84J81 (protein)
chain: MAKDGPNWDGLLKWSLSHADGTRPTRQLSEEDRKWFMEAMQSQTVDVVKRMKEITLVMQTPEQVLVEHGVTPEDIQDLLDELQEHVESIDMANDLHSIGGLVPLLSFLKNSHANIRAKAADVVSTIVQNNPRSQELVMETNALESLLSNFTSDTDIHARTQALGAISSLIRHNKPGVTAFKLANGYAGLRDALASDSVRFQRKALNLLQYLLQEDDSDRSIATGLGFPRVMMHLASSDDAEIREAALRGLLELSREKNDGSSSIDKSDEKLRQLLEERIKGITLMSQEDLETVKEERQLVDLLWSICYNEPSSLREKGLVVLPGEDALPPDVASKLFEPPLRASAANRNATEKKDEPMKLLGP
[1]
  glycan array binding signal (z-score): 0.246
[2]
  glycan array binding signal (z-score): -0.392
[3]
  glycan array binding signal (z-score): -0.064
[4]
  glycan array binding signal (z-score): 0.47
[5]
  glycan array binding signal (z-score): 0.027
[6]
  glycan array binding signal (z-score): -0.051
[7]
  glycan array binding signal (z-score): -0.693
[8]
  glycan array binding signal (z-score): -0.893
[9]
  glycan array binding signal (z-score): 0.105
[10]
  glycan array binding signal (z-score): -0.407
[11]
  glycan array binding signal (z-score): -0.008
[12]
  glycan array binding signal (z-score): 0.795
[13]
  glycan array binding signal (z-score): 0.847
[14]
  glycan array binding signal (z-score): 0.575
[15]
  glycan array binding signal (z-score): -0.486
[16]
  glycan array binding signal (z-score): -0.248
[17]
  glycan array binding signal (z-score): 0.722
[18]
  glycan array binding signal (z-score): 0.155
[19]
  glycan array binding signal (z-score): 1.28
[20]
  glycan array binding signal (z-score): -0.342
[21]
  glycan array binding signal (z-score): -0.551
[22]
  glycan array binding signal (z-score): 0.055
[23]
  glycan array binding signal (z-score): -0.372
[24]
  glycan array binding signal (z-score): -0.228
[25]
  glycan array binding signal (z-score): -0.612
[26]
  glycan array binding signal (z-score): -0.298
[27]
  glycan array binding signal (z-score): 0.32
[28]
  glycan array binding signal (z-score): -0.582
[29]
  glycan array binding signal (z-score): -0.956
[30]
  glycan array binding signal (z-score): 0.427
[31]
  glycan array binding signal (z-score): -1.14
[32]
  glycan array binding signal (z-score): 0.106
[33]
  glycan array binding signal (z-score): -0.052
[34]
  glycan array binding signal (z-score): 0.06
[35]
  glycan array binding signal (z-score): -0.176
[36]
  glycan array binding signal (z-score): 0.59
[37]
  glycan array binding signal (z-score): 0.136
[38]
  glycan array binding signal (z-score): -1.12
